The assay concerns the target keratin 14 (K14), wild type, mouse (mouse (endogenous in C57Bl/6 newborn skin keratinocytes)) (UniProt Q61781). Briefly: affinity purification with mass spectrometry; K14 antibody immunoprecipitation (Protein G Sepharose) from lysates of WT newborn mouse skin keratinocytes in primary culture, 1 mM calcium, 4 days; lysis in 1% Triton X-100, 2% Empigen, 40 mM Hepes pH 7.5, 120 mM NaCl; bands excised from silver-stained gels, tandem MS.

Amino acid sequences for entries named in this document (tags omitted).
UniProt Q61781: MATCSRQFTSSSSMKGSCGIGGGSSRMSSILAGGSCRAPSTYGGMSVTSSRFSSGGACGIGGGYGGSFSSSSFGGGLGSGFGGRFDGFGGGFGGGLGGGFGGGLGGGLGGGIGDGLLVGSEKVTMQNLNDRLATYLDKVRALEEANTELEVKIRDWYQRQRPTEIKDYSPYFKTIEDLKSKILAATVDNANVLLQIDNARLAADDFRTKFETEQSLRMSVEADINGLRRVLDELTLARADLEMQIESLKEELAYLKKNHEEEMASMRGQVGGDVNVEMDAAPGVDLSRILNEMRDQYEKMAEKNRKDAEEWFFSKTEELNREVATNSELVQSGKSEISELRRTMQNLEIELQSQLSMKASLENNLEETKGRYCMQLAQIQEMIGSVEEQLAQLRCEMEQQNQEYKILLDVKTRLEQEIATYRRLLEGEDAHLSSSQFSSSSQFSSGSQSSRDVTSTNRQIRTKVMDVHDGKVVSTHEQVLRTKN

In article PMC7250575 one finds binding data, which are given here for one molecule.

No constants are given. Whether binding was seen depends on the method and setting. In cells and extracts the contact can be indirect. Here binding means that the protein was enriched with, or labelled near, the bait; the list need not be complete.

B1: 14-3-3σ, endogenous, mouse (protein, UniProt O70456 1-248)
chain: MERASLIQKAKLAEQAERYEDMAAFMKSAVEKGEELSCEERNLLSVAYKNVVGGQRAAWRVLSSIEQKSNEEGSEEKGPEVKEYREKVETELRGVCDTVLGLLDSHLIKGAGDAESRVFYLKMKGDYYRYLAEVATGDDKKRIIDSARSAYQEAMDISKKEMPPTNPIRLGLALNFSVFHYEIANSPEEAISLAKTTFDEAMADLHTLSEDSYKDSTLIMQLLRDNLTLWTADSAGEEGGEAPEEPQS
For the molecule B1, the binding result is given as “binds”.
